Source: paper doi:10.1101/2025.08.18.670856
No constants are given. Whether binding was seen depends on the method and setting. Binding seen in cells or lysates may run through a third protein. Some results given as binding are weak or reduced against the parent protein; the word gives no strength. Where a sequence is shown, tags or fusion partners need not be part of it.

By UniProt entry, the sequences of proteins in these tests, tags left out.
UniProt Q16665: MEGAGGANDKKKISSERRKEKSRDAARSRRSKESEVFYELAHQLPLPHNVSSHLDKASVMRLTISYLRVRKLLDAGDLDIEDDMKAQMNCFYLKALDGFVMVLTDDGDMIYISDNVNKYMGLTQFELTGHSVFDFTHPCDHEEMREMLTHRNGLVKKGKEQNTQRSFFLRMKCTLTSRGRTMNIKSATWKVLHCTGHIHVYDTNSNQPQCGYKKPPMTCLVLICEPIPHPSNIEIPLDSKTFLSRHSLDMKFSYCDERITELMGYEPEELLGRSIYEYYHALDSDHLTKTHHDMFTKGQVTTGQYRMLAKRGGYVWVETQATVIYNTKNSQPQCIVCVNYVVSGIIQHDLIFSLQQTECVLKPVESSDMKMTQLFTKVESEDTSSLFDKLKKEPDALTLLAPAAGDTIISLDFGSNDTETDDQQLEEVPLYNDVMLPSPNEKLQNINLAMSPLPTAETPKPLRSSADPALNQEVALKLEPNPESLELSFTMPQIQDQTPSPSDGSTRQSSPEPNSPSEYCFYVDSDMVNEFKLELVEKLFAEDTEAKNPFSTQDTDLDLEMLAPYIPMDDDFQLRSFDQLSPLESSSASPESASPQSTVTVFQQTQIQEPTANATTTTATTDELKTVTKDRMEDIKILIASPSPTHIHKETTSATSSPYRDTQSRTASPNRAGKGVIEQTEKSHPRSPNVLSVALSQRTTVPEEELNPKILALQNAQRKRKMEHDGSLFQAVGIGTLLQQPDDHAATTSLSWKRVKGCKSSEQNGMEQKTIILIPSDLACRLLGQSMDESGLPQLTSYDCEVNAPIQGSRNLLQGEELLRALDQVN

Target: T1, FetA-HIS (wild type, from the plasmid AHSG-bio-His) (human) (UniProt P02765)
T1 sequence: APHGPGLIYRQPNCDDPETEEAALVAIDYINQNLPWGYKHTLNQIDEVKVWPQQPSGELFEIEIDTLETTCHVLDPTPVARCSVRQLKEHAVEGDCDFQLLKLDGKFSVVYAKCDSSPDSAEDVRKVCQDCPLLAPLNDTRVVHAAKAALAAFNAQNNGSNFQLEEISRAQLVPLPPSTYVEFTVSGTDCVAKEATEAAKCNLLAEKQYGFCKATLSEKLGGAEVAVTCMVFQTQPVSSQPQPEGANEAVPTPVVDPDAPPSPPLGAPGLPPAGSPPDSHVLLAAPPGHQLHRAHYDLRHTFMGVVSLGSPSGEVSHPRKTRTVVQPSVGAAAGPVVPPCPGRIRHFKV
Assay: co-IP

With “HIF-1α-HA (from the plasmid HA-HIF1alpha-pcDNA3), in HEK293 nuclear lysate (from UniProt Q16665 1-826)” the binding was “binds”.
